Not every detail of the peptide structures is certain; ends, links or a residue may be inferred. Where a SMILES comes first, the peptide text is derived from it. The star is where a group is joined. Palmitoyl = CCCCCCCCCCCCCCCC(=O)*
Experiments:
[1] = tested on: VSMC; test: VSMC exposed to elastin-derived peptide (EDP), real-time PCR; format: cell-based, mouse; conditions: EDP 0.1 and 1 µg.mL^-1, 24 hours
[2] = tested on: abdominal aorta; test: real-time PCR of inflammatory genes, MMPs and phenotypic markers in aortic tissue of elastase-perfused mice; format: in vivo, C57BL/6J mice (Mus musculus)
[3] = tested on: mouse VSMC line MOVAS-1; test: scratch wound-healing assay with elastase; format: cell-based; conditions: elastase 2.5 µg.mL^-1
[4] = tested on: MMP9 and MMP2; test: gelatin zymography of MMPs in mouse serum samples; format: in vivo, C57BL/6J mice (Mus musculus); conditions: day 14
[5] = tested on: VSMC; test: VSMC stimulated with elastase (Western blot, real-time PCR, ELISA, zymography); format: cell-based, mouse
[6] = tested on: BMDM; test: BMDM stimulated with elastin-derived peptide (EDP), real-time PCR; format: cell-based, mouse; conditions: EDP 1 µg.mL^-1, time course
[7] = tested on: elastase-induced AAA; test: elastase-induced AAA mouse model, histology and immunohistochemistry of abdominal aorta; format: in vivo, C57BL/6J mice (Mus musculus)
[8] = tested on: RAW 264.7 macrophages; test: RAW 264.7 macrophages stimulated with elastase (Western blot, real-time PCR, ELISA, zymography); format: cell-based, mouse
[9] = tested on: STAT1/3; test: JAK/STAT/SOCS expression and phosphorylation in aorta of elastase-perfused mice (real-time PCR, Western blot, immunodetection); format: in vivo, C57BL/6J mice (Mus musculus)
[10] = 24 hours of stimulation with elastase
[11] = ELISA, elastase-stimulated cells, cell type of Fig. 6E not stated
[12] = elastase-stimulated, gelatin zymography
[13] = day 14, mean±SEM, stated as significantly reduced
[14] = elastase 0.7 µg.mL^-1, S1 peptide 150 µg.mL^-1, 6 hours

## CCCCCCCCCCCCCCCC(=O)N[C@@H](CCCCN)C(=O)N[C@@H](CC(=O)O)C(=O)N[C@H](C(=O)N[C@@H](Cc1c[nH]cn1)C(=O)N[C@@H](Cc1ccccc1)C(=O)N[C@@H](CCCNC(=N)N)C(=O)N[C@H](C(=O)N[C@@H](Cc1ccccc1)C(=O)N[C@@H](CCCNC(=N)N)C(=O)N[C@@H](CO)C(=O)N[C@@H](Cc1c[nH]cn1)C(=O)N[C@@H](C)C(=O)N[C@@H](CC(=O)O)C(=O)N[C@@H](Cc1ccc(O)cc1)C(=O)N[C@@H](CCCNC(=N)N)C(=O)N[C@@H](CCCNC(=N)N)C(=O)N[C@H](C(=O)O)[C@@H](C)CC)[C@@H](C)O)[C@@H](C)O [S1 peptide, palmitoyl-SEQ ID NO: 8 (KDTHFRTFRSHADYRRI)] (Palmitoyl-KDTHFRTFRSHADYRRI-OH)
[1]
  gene expression of cytokines and MMPs increased by EDP: significantly downregulated
[2]; AAA tissue, compared with controls
  gene expression of elastolytic enzymes (Mmp2 and Mmp9): Lower gene expression
[2]; abdominal aorta
  antiinflammatory cytokine (Il-10) and M2 markers (Arg1 and Cd206): upregulation
  inflammatory genes (Il-17 and Icam1) and M1 macrophage markers (Arg2 and Inos): downregulated
  mRNA expression of chemokines (Ccl2 and Ccl5) and cytokines (Ifnγ, Tnfα): reduced mRNA expression
[2]; aortic tissue
  expression levels of proliferative, synthetic VSMC phenotype marker (Klf4): decline
  expression of contractile VSMC genes (Acta2 and Sm22α): increased
[2]; thoracic aorta
  mRNA expression of chemokines (Ccl2 and Ccl5) and cytokines (Ifnγ, Tnfα): no significant changes
[3]
  migration and proliferation capacity of elastase-treated cells (cell-covered area): prominently mitigated
[4]
  intensity of active MMP9 and MMP2 bands: decreased intensity
[5]; [10]
  contractile marker (Acta2 and Sm22): did not modify
  expression levels of synthetic phenotype marker (Klf4): significantly reduced
[5]; [11]
  CCL2 chemokine release to the cell culture medium: suppressed
[5]; elastase 2.5 µg.mL^-1, S1 peptide 150 µg.mL^-1
  gene expression of Mmp2, Mmp9, and Timp1 (but not Timp2): decreased gene expression
[5]; elastase 2.5 µg.mL^-1, S1 peptide 150 µg.mL^-1, 24 hours
  expression of inflammatory genes (Ccl2, Ccl5, Cxcl10, and Tnfα) and NADPH oxidase subunits (Nox1 and/or Nox2) induced by elastase: downregulated
[5]; elastase 2.5 µg.mL^-1, S1 peptide 150 µg.mL^-1, Western blot 2 hours, PCR 24 hours
  elastase-increased protein phosphorylation and mRNA expression of STAT1 and STAT3: significantly decreased
[5]; [12]
  MMP2/9 gelatinolytic activity in cell conditioned media: lower
[6]
  gene expression of cytokines and MMPs increased by EDP: significantly downregulated
[7]; 4 mg.kg^-1 intraperitoneal, 3 days/week, started 1 day before operation, 14 days after elastase perfusion, 6/12 mice, vehicle Control 12/12
  Incidence rate of AAA (increase of 100% over the initial aortic diameter): 50%
[7]; 4 mg.kg^-1 intraperitoneal, 3 days/week, day 14
  Aneurysm rupture: not observed
[7]; 4 mg.kg^-1 intraperitoneal, 3 days/week, day 14, mean±SEM, stated as significantly decreased
  maximal aortic dilation (diameter increase, % versus Control): 47±6 % versus Control
[7]; day 14, aortic sections, immunodetection
  medial VSMC content (contractile proteins α-SMA and calponin): improved preservation
[7]; day 14, compared with the Control group
  elastin fibers disruption (Verhoeff-van Gieson staining): less disrupted
[7]; [13]
  aortic levels of superoxide anion (DHE): 38±9 % versus Control
  oxidative DNA damage marker 8OHdG: 41±6 % versus Control
[7]; day 14, versus vehicle control group
  accumulation of CD68^+ macrophages, Ly6G^+ neutrophils, CD3^+ T-cells, and CD45R^+ B-cells in AAA lesions: significantly decreased
[8]; [10]
  M1/M2 ratio: lower
  anti-inflammatory M2 phenotype genes (Arg1 and Cd206): upregulating
  expression of M1 associated markers (Arg2 and Inos): reduced
[8]; [11]
  CCL2 chemokine release to the cell culture medium: suppressed
[8]; elastase 0.7 µg.mL^-1, S1 peptide 150 µg.mL^-1
  gene expression of Mmp2, Mmp9, and Timp1 (but not Timp2): decreased gene expression
[8]; [14]
  elastase-increased protein phosphorylation and mRNA expression of STAT1 and STAT3: significantly decreased
  expression of inflammatory genes (Ccl2, Ccl5, Cxcl10, and Tnfα) and NADPH oxidase subunits (Nox1 and/or Nox2) induced by elastase: downregulated
[8]; [12]
  MMP2/9 gelatinolytic activity in cell conditioned media: lower
[9]; AAA lesions, Western blot, versus vehicle control group
  STAT1/3 protein expression: significant reductions
[9]; AAA lesions, immunodetection of p-STAT1/3, versus vehicle control group
  STAT1/3 phosphorylation: significant reductions
[9]; abdominal aorta, end of treatment period, increments versus thoracic aorta
  mRNA expression of STAT1/3 and SOCS1/3: significantly decreased
